# PubChem BioAssay AID1671195 | Yale University – 2021
# Screen: 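Knockdowns that increase or decrease uptake of fluorescent LDL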 (primary screen)
# System: human Huh7 hepatoma cells
# Knock-down reagent: siRNA pool against human genes, 18 nM
# Duration: about 2 to 2.5 days of knockdown, then 8 h LDL uptake
# Conditions: DiI-labelled LDL at 30 µg/ml for 8 h, in lipoprotein-deficient serum medium
# Read-out: 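Fluorescent LDL signal imaged in cells, scaled to the plate median, robust z-score for each replicate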
# Reading the numbers: robust z-score: higher = more LDL uptake after knockdown
# Active means: 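a gene counts as active if at least two replicate z-scores exceed ±2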
# In all, the deposit lists about 22,000 reagents; this is a random part of them. About 1,510 of them (6.9%) count as active. 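Active includes knockdowns raising or lowering LDL uptake; positive z-scores mean more uptake, negative mean less.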 Entries without a mark were called inactive.
target,"robust z-score, replicate 1","robust z-score, replicate 2","robust z-score, replicate 3"
TNF,0.193,-0.311,-0.0355
XPR1,-0.689,-1.24,-1.22
EFL1,-1.67,-0.782,-0.956
ACTMAP,0.769,0.952,1.94
WDR91,-0.653,-0.647,-0.35
ALG11,0.873,0.651,0.494
MTERF3,-1.72,-0.206,-0.356
ATG16L1,-1.24,-1.17,0.455
KCNK15,-0.075,-0.107,-0.419
USP47,1.27,1.15,1.08
DBT,0.44,-0.828,-0.256
FAM13B,1.73,2.22,1.12
SFXN3,-0.314,-0.762,-0.481
DCTN4,-1.53,-0.174,-2.43
PCDHGB5,-1.09,-1.14,-0.695
CFAP126,1.83,1.37,1.49
LOC400987 (retired record),0.863,0.43,0.373
SPRED1,0.765,0.784,1.41
LOC145846 (retired record),0.521,1.46,0.184
NCS1,-1.04,-0.785,-0.897
CYCS,0.107,-0.57,-0.0364
PRORSD1P,-1.06,-1.57,-1.01
LOC440445 (retired record),-0.256,-0.897,-0.546
TRMT6,-1.82,-0.987,-1.42
P4HA3,-1.23,-0.59,-0.985
RPL32P36,-1.77,-1.67,-1.62
OTUD7B,-2,-0.86,-1.22
VN1R5,-1.82,-1.01,-2.11
PPP3R1,0.993,3.12,0.961
HES2,-0.559,-0.565,-0.921
PRSS8,-0.725,-0.486,-0.14
TMC4,-0.22,-0.373,-1.06
RASGRF2,-0.608,-0.303,-0.128
SH3BGRL,0.991,-0.492,-0.187
SHISA9,1.42,1.46,2.04
CHST4,-1.18,-1.04,-1.88
EIF4A1P6,-0.729,-0.745,-0.729
LOC400411 (retired record),0.191,-0.0925,-0.118
C12orf56,-0.374,1.57,0.902
KLRA1P,-0.489,-0.389,-0.9
PCDHA6,0.0605,-0.226,-0.382
NSUN4,-0.757,-0.306,-0.635
RALGPS1,-0.621,-0.941,-1.55
LOC440368 (retired record),-0.2,0.151,-0.155
CHRNA6,0.64,0.962,0.996
IL2RG,0.537,0.241,0.864
TBC1D10C,-0.0184,0.193,-0.154
ELOVL3,0.744,0.698,1.04
MPZ,1.81,1.67,2.2
ZNF555,2.28 (active),1.47,4.07
TTF1,4.51 (active),4.91,3.53
MPC1,1.45 (active),2.23,2.5
CTNNA1,-0.163,0.585,1.47
TAF8,-2.04 (active),-2.2,-2.53
LOC400939 (retired record),0.225,0.231,0.181
LCE2D,2.98 (active),3.26,2.51
UNC93A,-1.47,-1.42,-1.07
LOC440724 (retired record),0.0864,-0.149,0.672
IGDCC3,1.42,0.723,0.583
LOC389071 (retired record),-1.38,-1.42,-1.5
HDDC3,0.945,-0.0779,-0.196
SLC25A35,3.16,1.49,-1.98
TLK1,-0.461,-1.03,0.254
PADI6,0.525,0.88,0.868
C17orf67,0.245,0.11,-0.168
GGCT,2.68 (active),1.98,1.7
NBR2,-0.325,-1.68,-0.912
SGO2,1.19,0.0914,-0.0915
SGCG,1.72,0.392,0.131
DGAT2-DT,0.986,0.712,0.813
CPEB2-DT,0.237,0.19,1.02
FLJ41170 (retired record),-2.28 (active),-2.2,-2.36
ATP4B,2.22,1.45,1.83
OXA1L,-0.405,-0.287,-0.186
TULP4,-0.899,-1.43,-1.24
LOC440420 (retired record),-0.281,-0.436,-0.483
OLFM4,-0.115,0.334,-0.194
NT5DC3,-1.69,-0.488,0.226
SETD1B,-0.967,-1.21,-0.617
ELOB,-0.399,-0.558,-0.299
ZNF559,0.472,0.182,0.256
PHF19,-0.852,-1.35,-0.245
SYT7,-0.914,-1.14,-0.876
SERTAD1,-2.07,0.364,-0.274
HESX1,-1.49,-1.6,-1.94
GSTM5,-0.458,0.104,-0.677
FUT2,-1.08,-0.983,-1.05

Ordered by “robust z-score, replicate 2” (high to low): 14 of the entries above
target,"robust z-score, replicate 1","robust z-score, replicate 2","robust z-score, replicate 3"
GGCT,2.68 (active),1.98,1.7
ATP4B,2.22,1.45,1.83
PADI6,0.525,0.88,0.868
DGAT2-DT,0.986,0.712,0.813
SGCG,1.72,0.392,0.131
OLFM4,-0.115,0.334,-0.194
CPEB2-DT,0.237,0.19,1.02
C17orf67,0.245,0.11,-0.168
SGO2,1.19,0.0914,-0.0915
OXA1L,-0.405,-0.287,-0.186
LOC440420 (retired record),-0.281,-0.436,-0.483
TULP4,-0.899,-1.43,-1.24
NBR2,-0.325,-1.68,-0.912
FLJ41170 (retired record),-2.28 (active),-2.2,-2.36
